This passage reports NP40-soluble protein abundance results from the supplement of paper PMC6411743.

By UniProt entry, the sequences of proteins in these tests, tags left out. Where a name states a change or a piece, a line headed by the entry shows the natural chain unless it says otherwise.
UniProt P09488: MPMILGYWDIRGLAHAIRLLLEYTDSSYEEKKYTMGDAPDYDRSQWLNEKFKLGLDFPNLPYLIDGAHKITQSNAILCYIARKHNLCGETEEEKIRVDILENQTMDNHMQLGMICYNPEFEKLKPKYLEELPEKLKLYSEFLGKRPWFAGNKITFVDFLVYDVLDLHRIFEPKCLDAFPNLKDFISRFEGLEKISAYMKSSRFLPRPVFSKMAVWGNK
UniProt P23921: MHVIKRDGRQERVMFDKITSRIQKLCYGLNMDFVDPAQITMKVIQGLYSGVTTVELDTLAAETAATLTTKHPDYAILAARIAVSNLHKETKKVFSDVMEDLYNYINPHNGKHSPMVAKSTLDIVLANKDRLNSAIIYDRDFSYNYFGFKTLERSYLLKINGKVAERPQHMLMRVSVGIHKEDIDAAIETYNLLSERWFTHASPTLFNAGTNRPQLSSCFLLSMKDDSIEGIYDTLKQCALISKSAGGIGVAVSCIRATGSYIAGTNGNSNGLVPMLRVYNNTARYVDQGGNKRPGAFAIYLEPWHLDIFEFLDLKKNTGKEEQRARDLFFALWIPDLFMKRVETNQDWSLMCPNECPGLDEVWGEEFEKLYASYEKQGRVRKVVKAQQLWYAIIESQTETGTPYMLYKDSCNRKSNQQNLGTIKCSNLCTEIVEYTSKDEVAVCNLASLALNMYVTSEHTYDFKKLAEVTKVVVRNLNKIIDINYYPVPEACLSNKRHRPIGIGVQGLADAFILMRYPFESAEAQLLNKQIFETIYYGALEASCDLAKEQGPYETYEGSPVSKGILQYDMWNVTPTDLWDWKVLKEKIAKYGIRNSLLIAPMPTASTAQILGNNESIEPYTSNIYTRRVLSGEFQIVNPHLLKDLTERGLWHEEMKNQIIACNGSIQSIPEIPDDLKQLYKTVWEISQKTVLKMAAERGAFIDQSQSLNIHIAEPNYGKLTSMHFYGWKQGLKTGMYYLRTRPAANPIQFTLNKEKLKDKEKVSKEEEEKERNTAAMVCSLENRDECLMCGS
UniProt P08754, whole entry: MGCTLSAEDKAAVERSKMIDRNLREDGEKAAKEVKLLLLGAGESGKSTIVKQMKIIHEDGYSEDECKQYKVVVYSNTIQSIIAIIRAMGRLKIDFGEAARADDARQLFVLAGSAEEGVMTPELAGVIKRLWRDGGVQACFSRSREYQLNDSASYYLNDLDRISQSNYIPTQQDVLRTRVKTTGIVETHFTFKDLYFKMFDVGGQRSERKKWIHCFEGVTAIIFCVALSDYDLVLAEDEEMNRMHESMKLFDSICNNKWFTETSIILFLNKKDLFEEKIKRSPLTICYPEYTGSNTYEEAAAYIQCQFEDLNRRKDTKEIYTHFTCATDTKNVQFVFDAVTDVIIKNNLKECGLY
UniProt P16591: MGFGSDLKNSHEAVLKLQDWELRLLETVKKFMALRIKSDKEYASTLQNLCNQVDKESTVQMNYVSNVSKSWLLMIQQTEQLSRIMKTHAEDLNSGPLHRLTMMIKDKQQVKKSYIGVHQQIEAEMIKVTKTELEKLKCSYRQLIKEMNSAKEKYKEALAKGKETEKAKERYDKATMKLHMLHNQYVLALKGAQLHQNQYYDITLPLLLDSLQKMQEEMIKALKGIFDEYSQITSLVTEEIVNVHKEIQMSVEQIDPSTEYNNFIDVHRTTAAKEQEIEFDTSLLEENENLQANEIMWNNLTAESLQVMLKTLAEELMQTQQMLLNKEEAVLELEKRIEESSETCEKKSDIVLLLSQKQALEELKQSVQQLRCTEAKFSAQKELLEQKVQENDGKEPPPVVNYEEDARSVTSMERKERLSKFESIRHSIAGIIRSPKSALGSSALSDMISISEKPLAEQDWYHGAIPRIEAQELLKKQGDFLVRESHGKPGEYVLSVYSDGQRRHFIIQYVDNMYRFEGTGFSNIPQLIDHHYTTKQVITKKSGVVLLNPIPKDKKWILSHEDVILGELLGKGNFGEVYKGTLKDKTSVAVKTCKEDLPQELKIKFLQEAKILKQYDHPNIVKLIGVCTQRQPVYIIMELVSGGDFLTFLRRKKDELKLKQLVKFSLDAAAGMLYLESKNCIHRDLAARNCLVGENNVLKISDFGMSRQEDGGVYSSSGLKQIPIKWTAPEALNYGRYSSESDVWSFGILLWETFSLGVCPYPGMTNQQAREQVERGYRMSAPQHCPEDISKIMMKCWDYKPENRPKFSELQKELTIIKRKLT
UniProt P21283, whole entry: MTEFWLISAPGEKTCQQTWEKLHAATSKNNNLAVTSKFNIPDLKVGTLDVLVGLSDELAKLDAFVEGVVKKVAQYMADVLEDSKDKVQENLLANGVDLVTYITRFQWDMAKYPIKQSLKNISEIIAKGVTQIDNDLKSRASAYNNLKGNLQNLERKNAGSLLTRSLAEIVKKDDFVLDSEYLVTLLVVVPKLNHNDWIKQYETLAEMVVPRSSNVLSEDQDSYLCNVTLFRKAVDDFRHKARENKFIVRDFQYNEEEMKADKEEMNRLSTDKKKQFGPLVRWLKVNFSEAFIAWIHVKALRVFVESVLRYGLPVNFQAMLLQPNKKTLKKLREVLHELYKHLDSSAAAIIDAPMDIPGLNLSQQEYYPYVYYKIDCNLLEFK

± gives the standard deviation of the averaged measurements. The list shows a part of the results.

Compound in the assay: Nc1nc2c(ncn2[C@@H]2O[C@H](COP(=O)(O)OP(=O)(O)OP(=O)(O)O)[C@@H](O)[C@H]2O)c(=O)[nH]1 [guanosine triphosphate]
The assay can be described thus: NP40-soluble protein abundance relative to vehicle (solubility fold change) (ratio); higher = more soluble protein in presence of GTP. Here is the method: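 Solubility proteome profiling in Jurkat crude lysate. Lysate was treated with Mg-GTP (0.1-10 mM) for 10 min at room temperature and 3 min at 37 °C, then solubilised with 0.8% NP40 and benzonase, followed by ultracentrifugation. Proteins were quantified by TMT10 LC-MS/MS; the value is the NP40-soluble abundance relative to the NP40-processed vehicle, from 3 independent experiments.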

Turning to UniProt P09488 and related entries, the NP40-soluble protein abundance is, setting by setting: (concentration: 0.1mM) 0.981 ± 0.044; (concentration: 0.5mM) 1 ± 0.047; (concentration: 1mM) 0.836 ± 0.036; (concentration: 2mM) 0.827 ± 0.024; (concentration: 4mM) 0.783 ± 0.053; (concentration: 6mM) 0.808 ± 0.04. The NP40-soluble protein abundance (concentration: 8mM) turned out to be 0.746 ± 0.039 and the NP40-soluble protein abundance (concentration: 10mM) came out at 0.745 ± 0.081.
Turning to UniProt P23921 and related entries, the NP40-soluble protein abundance by setting is: (concentration: 0.1mM) 1.03 ± 0.063; (concentration: 0.5mM) 1.04 ± 0.088; (concentration: 1mM) 0.898 ± 0.046; (concentration: 2mM) 0.922 ± 0.1; (concentration: 4mM) 0.9 ± 0.06; (concentration: 6mM) 0.902 ± 0.079. Besides, the NP40-soluble protein abundance (concentration: 8mM) was 0.858 ± 0.038 and the NP40-soluble protein abundance (concentration: 10mM) turned out to be 0.807 ± 0.098.
For the target GNAI3 (UniProt P08754), the NP40-soluble protein abundance runs as follows: (concentration: 0.1mM) 0.993 ± 0.13; (concentration: 0.5mM) 1.06 ± 0.093; (concentration: 1mM) 0.911 ± 0.071; (concentration: 2mM) 0.946 ± 0.053; (concentration: 4mM) 0.931 ± 0.036; (concentration: 6mM) 0.932 ± 0.027. For the same target, the NP40-soluble protein abundance amounted to 0.813 ± 0.033 (concentration: 8mM) and 0.89 ± 0.13 (concentration: 10mM).
As to FER (UniProt P16591), the NP40-soluble protein abundance (concentration: 0.1mM) came out at 1.01 ± 0.042; the NP40-soluble protein abundance (concentration: 0.5mM) is 1.04 ± 0.064; the NP40-soluble protein abundance (concentration: 1mM) came to 1.04 ± 0.085; the NP40-soluble protein abundance (concentration: 2mM) worked out at 1.05 ± 0.11; the NP40-soluble protein abundance (concentration: 4mM) was determined as 1.04 ± 0.085; the NP40-soluble protein abundance (concentration: 6mM) was 1.04 ± 0.13. Moreover, the NP40-soluble protein abundance reads like this: (concentration: 8mM) 1.01 ± 0.1; (concentration: 10mM) 0.955 ± 0.057.
For the target ATP6V1C1 (UniProt P21283), the NP40-soluble protein abundance by setting is: (concentration: 0.1mM) 0.973 ± 0.01; (concentration: 0.5mM) 0.987 ± 0.018; (concentration: 1mM) 0.9441 ± 0.0043; (concentration: 2mM) 0.948 ± 0.023; (concentration: 4mM) 0.939 ± 0.025; (concentration: 6mM) 0.951 ± 0.01. The NP40-soluble protein abundance (concentration: 8mM) was determined as 0.93 ± 0.011 and the NP40-soluble protein abundance (concentration: 10mM) was 0.907 ± 0.015.
